{"source": "patent US20160369115A1", "about": "“POLARIZING PLATE COMPOSITION, POLARIZING PLATE PROTECTIVE FILM, POLARIZER, POLARIZING PLATE, LIQUID CRYSTAL DISPLAY DEVICE, AND COMPOUND USED IN THE LIQUID CRYSTAL DISPLAY DEVICE” (FUJIFILM Corporation, priority 2014, published 2016)", "key": {"[1]": {"assay": "Durability evaluation of polarizing plate, additive in polarizing plate protective film (Example 1)", "details": "410 nm"}, "[2]": {"assay": "Evaluation of light-fast adhesiveness of polarizing plate protective film with hardcoat layer", "details": "light 96 hours, 60° C., 50% RH"}, "[3]": {"details": "additive in protective film: Acrylic resin, 23 μm, added amount 4.0 per 100 parts by mass of film resin"}, "[4]": {"details": "additive in protective film: COP, 23 μm, added amount 4.0 per 100 parts by mass of film resin"}, "[5]": {"details": "additive in protective film: Cellulose acylate, 25 μm, added amount 1.0 per 100 parts by mass of film resin"}, "[6]": {"details": "additive in protective film: Cellulose acylate, 25 μm, added amount 2.0 per 100 parts by mass of film resin"}, "[7]": {"details": "additive in protective film: Cellulose acylate, 25 μm, added amount 4.0 per 100 parts by mass of film resin"}, "[8]": {"details": "additive in protective film: Cellulose acylate, 40 μm, added amount 4.0 per 100 parts by mass of film resin"}, "[9]": {"details": "additive in protective film: Cellulose acylate, 60 μm, added amount 4.0 per 100 parts by mass of film resin"}, "[10]": {"details": "additive in protective film: Cellulose acylate, 80 μm, added amount 4.0 per 100 parts by mass of film resin"}, "[11]": {"details": "additive in protective film: PET, 50 μm, added amount 4.0 per 100 parts by mass of film resin"}}, "note": "Some compounds share one wording; it may come from a single statement. Some compounds share one range, which may span the group rather than tell each member."}
{"smiles": "COC(=O)Oc1c(Cc2ccccc2)c(=O)n(-c2ccccc2)c(=O)n1Cc1ccccc1", "note": "[Example compound A]", "values": [{"measurement": "Durability of polarizer: amount of change of orthogonal transmittance (%) 60° C., 95%, 500 hours", "setting": "[1]; [3]", "value": "A+ (The amount of change of the orthogonal transmittance before and after the elapse of time was less than 0.4%.)"}, {"measurement": "Durability of polarizer: amount of change of orthogonal transmittance (%) 60° C., 95%, 1,000 hours", "setting": "[1]; [3]", "value": "A+ (The amount of change of the orthogonal transmittance before and after the elapse of time was less than 1.0%.)"}, {"measurement": "Durability of polarizer: amount of change of orthogonal transmittance (%) 80° C., Dry 500 hours", "setting": "[1]; [3]", "value": "A+ (The amount of change of the orthogonal transmittance before and after the elapse of time was less than 0.1%.)"}, {"measurement": "Durability of polarizer: amount of change of orthogonal transmittance (%) 80° C., Dry, 1,000 hours", "setting": "[1]; [3]", "value": "A+ (The amount of change of the orthogonal transmittance before and after the elapse of time was less than 0.5%.)"}, {"measurement": "Durability of polarizer: amount of change of orthogonal transmittance (%) 60° C., 95%, 500 hours", "setting": "[1]; [4]", "value": "A+ (The amount of change of the orthogonal transmittance before and after the elapse of time was less than 0.4%.)"}, {"measurement": "Durability of polarizer: amount of change of orthogonal transmittance (%) 60° C., 95%, 1,000 hours", "setting": "[1]; [4]", "value": "A+ (The amount of change of the orthogonal transmittance before and after the elapse of time was less than 1.0%.)"}, {"measurement": "Durability of polarizer: amount of change of orthogonal transmittance (%) 80° C., Dry 500 hours", "setting": "[1]; [4]", "value": "A+ (The amount of change of the orthogonal transmittance before and after the elapse of time was less than 0.1%.)"}, {"measurement": "Durability of polarizer: amount of change of orthogonal transmittance (%) 80° C., Dry, 1,000 hours", "setting": "[1]; [4]", "value": "A+ (The amount of change of the orthogonal transmittance before and after the elapse of time was less than 0.5%.)"}, {"measurement": "Durability of polarizer: amount of change of orthogonal transmittance (%) 60° C., 95%, 500 hours", "setting": "[1]; [5]", "value": "A+ (The amount of change of the orthogonal transmittance before and after the elapse of time was less than 0.4%.)"}, {"measurement": "Durability of polarizer: amount of change of orthogonal transmittance (%) 60° C., 95%, 1,000 hours", "setting": "[1]; [5]", "value": "A (The amount of change of the orthogonal transmittance before and after the elapse of time was equal to or greater than 1.0% and less than 1.4%.)"}, {"measurement": "Durability of polarizer: amount of change of orthogonal transmittance (%) 80° C., Dry 500 hours", "setting": "[1]; [5]", "value": "A+ (The amount of change of the orthogonal transmittance before and after the elapse of time was less than 0.1%.)"}, {"measurement": "Durability of polarizer: amount of change of orthogonal transmittance (%) 80° C., Dry, 1,000 hours", "setting": "[1]; [5]", "value": "A (The amount of change of the orthogonal transmittance before and after the elapse of time was equal to or greater than 0.5% and less than 0.8%.)"}, {"measurement": "Durability of polarizer: amount of change of orthogonal transmittance (%) 60° C., 95%, 500 hours", "setting": "[1]; [6]", "value": "A+ (The amount of change of the orthogonal transmittance before and after the elapse of time was less than 0.4%.)"}, {"measurement": "Durability of polarizer: amount of change of orthogonal transmittance (%) 60° C., 95%, 1,000 hours", "setting": "[1]; [6]", "value": "A (The amount of change of the orthogonal transmittance before and after the elapse of time was equal to or greater than 1.0% and less than 1.4%.)"}, {"measurement": "Durability of polarizer: amount of change of orthogonal transmittance (%) 80° C., Dry 500 hours", "setting": "[1]; [6]", "value": "A+ (The amount of change of the orthogonal transmittance before and after the elapse of time was less than 0.1%.)"}, {"measurement": "Durability of polarizer: amount of change of orthogonal transmittance (%) 80° C., Dry, 1,000 hours", "setting": "[1]; [6]", "value": "A (The amount of change of the orthogonal transmittance before and after the elapse of time was equal to or greater than 0.5% and less than 0.8%.)"}, {"measurement": "Durability of polarizer: amount of change of orthogonal transmittance (%) 60° C., 95%, 500 hours", "setting": "[1]; [7]", "value": "A+ (The amount of change of the orthogonal transmittance before and after the elapse of time was less than 0.4%.)"}, {"measurement": "Durability of polarizer: amount of change of orthogonal transmittance (%) 60° C., 95%, 1,000 hours", "setting": "[1]; [7]", "value": "A+ (The amount of change of the orthogonal transmittance before and after the elapse of time was less than 1.0%.)"}, {"measurement": "Durability of polarizer: amount of change of orthogonal transmittance (%) 80° C., Dry 500 hours", "setting": "[1]; [7]", "value": "A+ (The amount of change of the orthogonal transmittance before and after the elapse of time was less than 0.1%.)"}, {"measurement": "Durability of polarizer: amount of change of orthogonal transmittance (%) 80° C., Dry, 1,000 hours", "setting": "[1]; [7]", "value": "A+ (The amount of change of the orthogonal transmittance before and after the elapse of time was less than 0.5%.)"}, {"measurement": "Durability of polarizer: amount of change of orthogonal transmittance (%) 60° C., 95%, 500 hours", "setting": "[1]; [8]", "value": "A+ (The amount of change of the orthogonal transmittance before and after the elapse of time was less than 0.2%.)"}, {"measurement": "Durability of polarizer: amount of change of orthogonal transmittance (%) 60° C., 95%, 1,000 hours", "setting": "[1]; [8]", "value": "A+ (The amount of change of the orthogonal transmittance before and after the elapse of time was less than 0.7%.)"}, {"measurement": "Durability of polarizer: amount of change of orthogonal transmittance (%) 80° C., Dry 500 hours", "setting": "[1]; [8]", "value": "A+ (The amount of change of the orthogonal transmittance before and after the elapse of time was less than 0.2%.)"}, {"measurement": "Durability of polarizer: amount of change of orthogonal transmittance (%) 80° C., Dry, 1,000 hours", "setting": "[1]; [8]", "value": "A+ (The amount of change of the orthogonal transmittance before and after the elapse of time was less than 0.6%.)"}, {"measurement": "Durability of polarizer: amount of change of orthogonal transmittance (%) 60° C., 95%, 500 hours", "setting": "[1]; [9]", "value": "A+ (The amount of change of the orthogonal transmittance before and after the elapse of time was less than 0.2%.)"}, {"measurement": "Durability of polarizer: amount of change of orthogonal transmittance (%) 60° C., 95%, 1,000 hours", "setting": "[1]; [9]", "value": "A+ (The amount of change of the orthogonal transmittance before and after the elapse of time was less than 0.4%.)"}, {"measurement": "Durability of polarizer: amount of change of orthogonal transmittance (%) 80° C., Dry 500 hours", "setting": "[1]; [9]", "value": "A+ (The amount of change of the orthogonal transmittance before and after the elapse of time was less than 0.1%.)"}, {"measurement": "Durability of polarizer: amount of change of orthogonal transmittance (%) 80° C., Dry, 1,000 hours", "setting": "[1]; [9]", "value": "A+ (The amount of change of the orthogonal transmittance before and after the elapse of time was less than 0.3%.)"}, {"measurement": "Durability of polarizer: amount of change of orthogonal transmittance (%) 60° C., 95%, 500 hours", "setting": "[1]; [10]", "value": "A+ (The amount of change of the orthogonal transmittance before and after the elapse of time was less than 0.1%.)"}, {"measurement": "Durability of polarizer: amount of change of orthogonal transmittance (%) 60° C., 95%, 1,000 hours", "setting": "[1]; [10]", "value": "A+ (The amount of change of the orthogonal transmittance before and after the elapse of time was less than 0.3%.)"}, {"measurement": "Durability of polarizer: amount of change of orthogonal transmittance (%) 80° C., Dry 500 hours", "setting": "[1]; [10]", "value": "A+ (The amount of change of the orthogonal transmittance before and after the elapse of time was less than 0.07%.)"}, {"measurement": "Durability of polarizer: amount of change of orthogonal transmittance (%) 80° C., Dry, 1,000 hours", "setting": "[1]; [10]", "value": "A+ (The amount of change of the orthogonal transmittance before and after the elapse of time was less than 0.1%.)"}, {"measurement": "Durability of polarizer: amount of change of orthogonal transmittance (%) 60° C., 95%, 500 hours", "setting": "[1]; [11]", "value": "A+ (The amount of change of the orthogonal transmittance before and after the elapse of time was less than 0.2%.)"}, {"measurement": "Durability of polarizer: amount of change of orthogonal transmittance (%) 60° C., 95%, 1,000 hours", "setting": "[1]; [11]", "value": "A+ (The amount of change of the orthogonal transmittance before and after the elapse of time was less than 0.5%.)"}, {"measurement": "Durability of polarizer: amount of change of orthogonal transmittance (%) 80° C., Dry 500 hours", "setting": "[1]; [11]", "value": "A+ (The amount of change of the orthogonal transmittance before and after the elapse of time was less than 0.1%.)"}, {"measurement": "Durability of polarizer: amount of change of orthogonal transmittance (%) 80° C., Dry, 1,000 hours", "setting": "[1]; [11]", "value": "A+ (The amount of change of the orthogonal transmittance before and after the elapse of time was less than 0.4%.)"}, {"measurement": "Light-fast adhesiveness", "setting": "[2]; [3]", "value": "A (The number of cells peeled off among 100 cells was equal to or less than 10.)"}, {"measurement": "Light-fast adhesiveness", "setting": "[2]; [4]", "value": "A (The number of cells peeled off among 100 cells was equal to or less than 10.)"}, {"measurement": "Light-fast adhesiveness", "setting": "[2]; [5]", "value": "B (The number of cells peeled off among 100 cells was 11 to 20.)"}, {"measurement": "Light-fast adhesiveness", "setting": "[2]; [6]", "value": "B (The number of cells peeled off among 100 cells was 11 to 20.)"}, {"measurement": "Light-fast adhesiveness", "setting": "[2]; [7]", "value": "A (The number of cells peeled off among 100 cells was equal to or less than 10.)"}, {"measurement": "Light-fast adhesiveness", "setting": "[2]; [8]", "value": "A (The number of cells peeled off among 100 cells was equal to or less than 10.)"}, {"measurement": "Light-fast adhesiveness", "setting": "[2]; [9]", "value": "A (The number of cells peeled off among 100 cells was equal to or less than 10.)"}, {"measurement": "Light-fast adhesiveness", "setting": "[2]; [10]", "value": "A (The number of cells peeled off among 100 cells was equal to or less than 10.)"}, {"measurement": "Light-fast adhesiveness", "setting": "[2]; [11]", "value": "A (The number of cells peeled off among 100 cells was equal to or less than 10.)"}]}
